Tested on: nuOXPHOS transcripts
Format: cell-based, mouse

## Cc1cc(/C=C/c2ccc3cc(N(C)C)ccc3[n+]2C)c(C)n1-c1ccccc1 [pyrvinium pamoate, reference compound]
  nucOXPHOS Z: −2.08
